Experimental data: PubChem BioAssay AID504834 (National Center for Advancing Translational Sciences (NCATS), 2011)
About 22,000 (6.9%) of roughly 320,000 compounds were called active. Inconclusive means that the source gave no clear call. Such entries were picked first, then a sample of the others. Calls come from the whole dose curve; as a rule, active = well fitted inhibition curve with a large enough effect; inconclusive = small, poorly fitted or top-dose-only effect, or another doubt; inactive = no such curve, though single readings can be large or run the other way. Where the call is inconclusive, the potency comes from a doubtful curve fit.

Assay: Primary qHTS for delayed death inhibitors of the malarial parasite plastid, 96 hour incubation
Details: P. falciparum luciferase reporter growth; series mostly up to 28.7 µM; activity change, negative = inhibition: at the top concentration
How it was run: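 Readout is luminescence from an integrated firefly luciferase in P. falciparum. Red cells, 2% hematocrit and 0.05% parasitemia final, were cultured with compound through two parasite generations (96 hours) at 37 C, 5% CO2.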
% is set by controls: 0 for no effect and ±100 for the full control effect; potency is the fitted concentration of half-maximal effect.

| SMILES | Potency | activity change, negative = inhibition |
| --- | --- | --- |
| C=CCn1c2ccccc2c2nnc(SC(CC)C(=O)Nc3nc(C)c(C(=O)OCC)s3)nc21 (stereo not drawn) | inconclusive: 11.7 µM [inhibitor, single point] |  |
| COc1ccc(NC(=O)CSc2nnc(-c3cc(C)[nH]n3)n2N)cc1 | inconclusive: 18.5 µM [inhibitor, single point] |  |
| COc1ccc(Cl)cc1NC(=O)CN(C)C(=O)CCC(=O)c1cc(C)sc1C | inconclusive: 18.5 µM [inhibitor, single point] |  |
| Cc1ccccc1OCCOC(=O)c1cc(S(=O)(=O)N2CCCCC2)ccc1N1CCOCC1 | inconclusive: 13.1 µM [inhibitor, partial curve, poor fit] |  |
| O=C(O)c1ccccc1-n1c(-c2ccccc2)cc2c1CCCC2=O |  | inactive: 0.946% |
| CCOC(=O)CC(=O)CSc1nc2c(cc1C#N)CCCCC2 | inconclusive: 1.31 µM [inhibitor, partial curve, poor fit] |  |
| CC(=O)Nc1ccc(NC(=O)C(=O)c2cn(CC(=O)N3CCCC3)c3ccccc23)cc1 |  | inactive: 8.87% |
| Nc1cc(N)nc(SCCN2CCCCC2)n1 | inconclusive: 20.8 µM [inhibitor, partial curve, poor fit] |  |
| CC1CCN(Cc2c(C(=O)N/N=C/c3cccc(Cl)c3)nnn2-c2nonc2N)CC1 |  | inactive: -20.2% |
| COc1ccc(C2=NCC(CSc3nnc(-c4ccc5c(c4)OCO5)o3)S2)cc1 (stereo not drawn) | inconclusive: 13.1 µM [inhibitor, single point] |  |
| Cc1nonc1C1CCCN1C(=O)c1cc(COc2ccc(F)cc2F)on1 (stereo not drawn) | inconclusive: 8.28 µM [inhibitor, partial curve, poor fit] |  |
| CCCNC(=O)CN1C(=O)COc2ccc(S(=O)(=O)N3CC(C)CC(C)C3)cc21 (stereo not drawn) | inconclusive: 2.62 µM [inhibitor, full curve, poor fit] |  |
| O=C(CC1(C(F)(F)F)OCCO1)Nc1ccc2c(c1)OCO2 | inconclusive: 10.4 µM [inhibitor, single point] |  |
| Cc1cc(C(=O)OCC(=O)NC2CC2)ccc1[N+](=O)[O-] | inconclusive: 10.4 µM [inhibitor, single point] |  |
| O=C(COC(=O)C1C2CC3OC(=O)C1C3C2)Nc1ccccc1 (stereo not drawn) | inconclusive: 13.1 µM [inhibitor, single point] |  |
| CCOC(=O)C1(Cc2ccc(OC)cc2)CCN(C(=O)CCc2cnccn2)CC1 |  | inactive: -2.7% |
| CCOc1ccc(-c2nc(C)sc2CC(=O)O)cc1 |  | inactive: -1.13% |
| Cn1nnnc1SCC(=O)c1c(N)n(C)c(=O)n(C)c1=O | inconclusive: 18.5 µM [inhibitor, single point] |  |
| O=C(O)C1CSC(c2cccnc2)N1 (stereo not drawn) | inconclusive: 0.131 µM [inhibitor, partial curve, poor fit] |  |
| COc1ccc(N/C=C2/CCCCC2=O)cc1 | inconclusive: 9.28 µM [inhibitor, partial curve, poor fit] |  |
| CCOc1cc(N2CCOCC2)c(OCC)cc1NC(=O)c1ccc(S(=O)(=O)N(C)C)cc1 | inconclusive: 5.22 µM [inhibitor, partial curve] |  |
| O=C(CC1C(=O)NCCN1C(=O)Nc1ccc(C(F)(F)F)cc1)Nc1ccc(F)cc1 (stereo not drawn) | inconclusive: 18.5 µM [inhibitor, single point] |  |

| SMILES | Potency | activity change, negative = inhibition |
| --- | --- | --- |
| CCOC(=O)c1[nH]c2c(c1-c1ccccc1)C(=O)CC(c1ccc(Cl)cc1)C2 (stereo not drawn) | active: 9.28 µM |  |
| COc1ccc(OCc2cc(C(=O)N(C)Cc3nccn3C)no2)c2ccccc12 | inconclusive: 1.65 µM [inhibitor, full curve] |  |
| C=CCc1c(C)nc(SC)nc1Nc1ccc(C(=O)O)cc1 |  | inactive: -3.72% |
| CCN(C(=O)COC(=O)C1CCN(S(=O)(=O)c2ccc3c(c2)OCCO3)CC1)C1CCCCC1 | inconclusive: 10.4 µM [inhibitor, single point] |  |
| Oc1cccc(NC(=S)Nc2ccc(SC(F)F)cc2)c1 |  | inactive: 64% |
| CCc1noc(C)c1C(=O)Nc1nc(-c2ccc(OC)c(OC)c2)cs1 | active: 10.4 µM |  |
| Cc1cccc(N2CC(O)(c3cccs3)[N+]3=C2CCCC3)c1C (stereo not drawn) | inconclusive: 0.185 µM [inhibitor, partial curve, poor fit] |  |
| COc1cc(C(=O)c2cocc2C(=O)c2ccc3c(c2)OCO3)cc(OC)c1OC |  | inactive: -5.07% |
| CC(OC(=O)CCOc1ccccc1)C(=O)NC1CC1 (stereo not drawn) |  | inactive: 8.07% |
| C/C(=N/NS(=O)(=O)c1ccc(C)cc1)c1ccc2c(c1)OCO2 |  | inactive: -6.07% |
| O=C(CCc1ccc(S(=O)(=O)N2CCOCC2)cc1)Oc1ccccc1 | inconclusive: 0.185 µM [inhibitor, full curve, poor fit] |  |
| CCOC(=O)N1CCN(S(=O)(=O)c2ccc(C(=O)NNc3nc4c(C)cccc4s3)cc2)CC1 | inconclusive: 18.5 µM [inhibitor, single point] |  |
| O=C(NCc1ccc2c(c1)OCO2)c1cccc(F)c1 |  | inactive: 5.27% |
| COc1cccc(/C=C/c2onc(C)c2S(=O)(=O)N2CCC(C(=O)NC3CCCCCC3)CC2)c1 | inconclusive: 20.8 µM [inhibitor, partial curve, poor fit] |  |
| COc1ccc(/C=C/C(=O)N(CC(C)C)C2CCS(=O)(=O)C2)cc1 (stereo not drawn) | inconclusive: 18.5 µM [inhibitor, single point] |  |
| COc1ccccc1C(C)NC(=O)CN(C)CC(=O)Nc1c(C)cccc1C (stereo not drawn) | inconclusive: 9.28 µM [inhibitor, partial curve, poor fit] |  |
| Cc1ccc(C)c2[nH]c(=O)c(CN(Cc3ccco3)C(=O)Nc3ccccc3)cc12 | inconclusive: 0.657 µM [inhibitor, full curve, poor fit] |  |
| O=C(/C=C/c1ccco1)OCC(=O)c1ccc(OC(F)F)cc1 |  | inactive: 94% |
| CCOc1ccccc1C(=O)Nc1cc(OC)ccc1OC | inconclusive: 14.7 µM [inhibitor, partial curve] |  |
| Cc1ccccc1NC(=O)COC(=O)c1cc(C)n(C2CC2)c1C | inconclusive: 9.28 µM [inhibitor, partial curve, poor fit] |  |
| CCCCSc1nc(C)cc(C)c1S(=O)(=O)c1ccccc1C | active: 10.4 µM |  |

2 compounds drawn at random from the list so far:

| SMILES | Potency | activity change, negative = inhibition |
| --- | --- | --- |
| CCOC(=O)C1(Cc2ccc(OC)cc2)CCN(C(=O)CCc2cnccn2)CC1 |  | inactive: -2.7% |
| C=CCc1c(C)nc(SC)nc1Nc1ccc(C(=O)O)cc1 |  | inactive: -3.72% |
